Changes are numbered by the printed parent chain. No constants are given. Whether binding was seen depends on the method and setting. Some results given as binding are weak or reduced against the parent protein; the word gives no strength.

By UniProt entry, the sequences of proteins in these tests, tags left out. Where a name states a change or a piece, a line headed by the entry shows the natural chain unless it says otherwise.
UniProt Q15116: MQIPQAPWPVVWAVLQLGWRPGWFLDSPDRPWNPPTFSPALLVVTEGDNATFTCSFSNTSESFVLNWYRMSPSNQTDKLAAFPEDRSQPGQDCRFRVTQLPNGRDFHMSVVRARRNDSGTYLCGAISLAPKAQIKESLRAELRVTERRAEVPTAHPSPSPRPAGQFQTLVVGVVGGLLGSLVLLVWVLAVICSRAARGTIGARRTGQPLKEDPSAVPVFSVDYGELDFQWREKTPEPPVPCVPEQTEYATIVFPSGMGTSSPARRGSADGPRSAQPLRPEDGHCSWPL

Experiment [1] addresses Programmed cell death protein 1 (PD-1), human (human) (UniProt Q15116). The experiment is described as follows: SPR, five concentrations.
The target is the same in experiment [2]. The experiment in a line: SPR competition with PD1AB6.
Experiment [3] shares this target. The experiment is described as follows: SPR epitope binning.
Experiment [4] shares this target. The experiment is described as follows: ELISA.
Experiment [5] shares this target. The experiment in a line: SPR (FIG. 2B).
The target is the same in experiment [6]. The experiment is described as follows: SPR, three concentrations.
The target is the same in experiment [7]. The experiment is described as follows: SPR.

B1: E2-B5-7_201 (antibody, V domains shown)
VH: EVQLVQSGAEVKKPGATVKISCKASGYSLSDHYMHWVQQAPGKGLEWMGRIDPHSGATKYDPKFQGRVTITADTSTDTAYMELSSLRSEDTAVYYCARSGPVYHYGSSYVMDYWGQGTTVTVSS
VL: DIVMTQSPDSLAVSLGERATINCKSGQSVFYSSNNKNYLAWYQQKPGQPPKLLIYWASTRESGVPDRFSGSGSGTDFTLTISSLQAEDVAVYYCQQYLYSWTFGQGTKLEIK
On to B1, for which the binding result in experiment [1] and in experiment [2] was “binds” in each case.

B2: E2-B5-7_211 (antibody, V domains shown)
VH: B1 VH
VL: B1 VL with S58D
As to B2, the binding result in experiment [1] and in experiment [2] was “binds” in each case.

B3: D4-A7-7_201 (antibody, V domains shown)
VH: B1 VH with S28I, S30T, A57G, T58I
VL: B1 VL
notes: also called clone D4-A7-7_201
As to B3, the binding entry in experiment [3], in experiment [1] and in experiment [2] was “binds” each time.

B4: E2-B5-6_201 (antibody, V domains shown)
VH: B1 VH with Y103H, H104Y
VL: B1 VL
In the case of B4, the binding entry in experiment [1] and in experiment [2] was “binds” in each case.

B5: 27A5 (antibody, V domains shown)
VH: QVTLKESGPGILQPSQTLSLTCSFSGFSLSTFGMGVGWIRQPSGKGLEWLAHIWWDADKYSTPALKSRLTISKDTSKNQVFLKIANVDTADTATYYCARIGRNYYFDYWGQGTTLTVSS
VL: DIVMTQSPSSLAVSVGEKVTLTCKSSQTLLDSTNQKNYLAWYQQIPGQSPKLLIYWASTRESGVPDRFTGSGSGTDFTLTISSVKAEDLTVYYCQQYYTYPLTFGAGTKLELK
notes: Antibody from a monoclonal hybridoma of immunised BALB/c mice
Turning to B5, the binding result in experiment [4] and in experiment [5] was “binds” throughout.

B6: 43 (antibody, V domains shown)
VH: EVQLLESGGGLVQPGGSLRLSCAASGFTFSIHPMTWVRQAPGKGLEWVSLISTGGGSTYYADSVKGRFTISRDNSKNTLYLQMNSLRAEDTAVYYCASASVLGSGGYWSPGMDYWGQGTLVTVSS
VL: DIQMTQSPSSLSASVGDRVTITCRASQSIDRFLNWYQQKPGKAPKLLIYGASNLPSGVPSRFSGSGSGTDFTLTISSLQPEDFATYYCQQSFSIPWTFGGGTKVEIK
notes: From phage panning of a naive antibody library; also called antibody 43; clone 43
For the molecule B6, in experiment [6], the binding result is on record as “binds”.

B7: 7 (antibody, V domains shown)
VH: EVQLLESGGGLVQPGGSLRLSCAASGFPFGNYLMNWVRQAPGKGLEWVSVISGGGVSTYYADSVKGRFTISRDNSKNTLYLQMNSLRAEDTAVYYCARGPSSWPAFDVWGQGTLVTVSS
VL: DIQMTQSPSSLSASVGDRVTITCRASETISNFLNWYQQKPGKAPKLLIYTTSSLQRGVPSRFSGSGSGTDFTLTISSLQPEDFATYYCQQSYSVPWTFGGGTKVEIK
notes: From phage panning of a naive antibody library; also called antibody 7; clone 7
For the molecule B7, the binding result in experiment [3] and in experiment [6] was “binds” each time.

B8: 1-C09-3 (antibody, V domains shown)
VH: QVQLQQPGAELVRPGTSVKLSCKASGYTFTSYWMHWVKERPGQGLEWIGVIDPSDSYTNYNQKFKDKATLTVDTSSSTAYMQLSSLTSEDSAVYYCARSPFDYWGQGTTLTVSS
VL: DIQMTQSQKFMSTSVGDRVSVTCKASQNVGTNVAWYQQKPGQSPKALIYSASYRYSGVPDRFIGSGSGTDFTLTIRNVQSEDLAEYFCQQHNSYPFTFGGGTKLEIK
notes: From the in vitro scFv library of immunised mice
Turning to B8, in experiment [7], the binding result is on record as “binds”.

B9: 1-F09-1 (antibody, V domains shown)
VH: B8 VH with L11V, R13M, T16A, E39Q, N59Q, D66G
VL: B8 VL with T5N, Q8H, V21I, N28D, G30S, N32A, Y53N, I106M
notes: as for B8
As to B9, the binding result in experiment [7] is reported as “binds”.

B10: 1-F12-1 (antibody, V domains shown)
VH: B8 VH with Q1E, E39Q, N59Q, D66G, L110V
VL: DIVMTQSHKFMSTSVGDRVSITCKASQDVSTAVAWYQQKPGQSPKALIYSASYRYSGVPDRFTGSGSGTDFTLTISNVQAEDLAVYYCHQHNTYPFTFGGGTKLEIK
notes: as for B8
As for B10, the binding entry in experiment [7] is reported as “binds”.

B11: 2-D11-1 (antibody, V domains shown)
VH: B8 VH with Q1E, S21A, T30N, S31T, K38N, E39Q, N59Q, D66G
VL: B8 VL with I2V, R76S
notes: as for B8
Turning to B11, the binding entry in experiment [7] is “binds”.

B12: 1-H01-1 (antibody, V domains shown)
VH: B8 VH with R13K, T16A, L20M, E39Q, D55N, N59I, D66G
VL: B8 VL with I2V, Q3V, I63T
notes: From the in vitro scFv library of immunised mice; also called clone 1-H01-1
With B12, the binding entry in experiment [7] and in experiment [3] was “binds” throughout.

B13: 1-C09-1 (antibody, V domains shown)
VH: B8 VH with A9T, L20M, E39Q, N59Q, D66G
VL: B8 VL with Q3V, V58I, I63T, R76S, E85D, Y86F, H91Y
notes: as for B8
On to B13, for which, in experiment [7], the binding entry is “binds”.

(Values after patent US20240092909A1 (IBIO, published 2024).)
